For at least one entry, the source does not settle the construct or the ends of the probe. Results from cells or extracts need not show a direct contact.

Sequences of proteins named here, by UniProt entry; tags and fusion partners are left off. Residues count along the entry.
UniProt Q9EP73, 19-290: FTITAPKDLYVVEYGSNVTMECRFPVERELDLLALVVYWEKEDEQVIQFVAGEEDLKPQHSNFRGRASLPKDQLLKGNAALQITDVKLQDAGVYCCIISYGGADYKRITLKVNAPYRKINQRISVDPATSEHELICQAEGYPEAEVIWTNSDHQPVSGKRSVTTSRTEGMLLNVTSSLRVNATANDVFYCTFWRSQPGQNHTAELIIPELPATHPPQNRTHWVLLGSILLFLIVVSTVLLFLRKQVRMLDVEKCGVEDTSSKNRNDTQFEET

This series addresses PD-L1 on tumor-infiltrating Treg cells (Hepa1-6 tumors) (Mus musculus (C57BL/6J)) (UniProt Q9EP73). In words: flow cytometry cell binding. The conditions noted are these: comparable to chimera; protein on the cell surface; label: biotin (ELONA), 5'-Cy5 (cell binding); folded or branched DNA.

Turning to “ACCGACCGTGCTGGACTCATCTCGCTTTTTTCACGGTCCACACTACTATGAGCGAGCCTGGCG [PD-L1 aptamer]”, the binding result is recorded as “binds”.

For the origin of these results see PMC12708450.
